The list does not hold the whole screen: it gathers tests that were run many times, whatever their T/C, doses with no T/C, and many T/C values between a quarter and a half above the control. Further doses and runs are listed elsewhere. T/C gives the treated animals as a percentage of the vehicle group. Some doses have a count of surviving animals in place of a T/C: the source holds a T/C of zero for them, seemingly a mark for toxic or unscored doses. Some survivor counts are full or nearly so, which does not show that the dose was tolerated: the source hardly ever lists a survival T/C far under the control, and the zero likely stands for such cases as well. Survivors were counted at the toxicity check, usually on the fifth day, unless a day is given; later deaths do not show. Schedules are NCI's codes, read here as Q, the interval in days (D) or hours (H), X, the number of doses. Some entries were tested several times; the results are listed from low to high. For survival time, the PubChem record calls one and a half times the control and up active, and a quarter to a half above the control has no call in these data; cut-offs in other NCI protocols can differ. Some T/C values are followed by the survivors on the day toxicity was checked, most often the fifth; where none is given, no animal had died by that day.
System: P388 leukemia ip, CD2F1 mice, survival T/C
Assay: NCI In Vivo Anticancer Drug Screen. Data for tumor model P388 Leukemia (intraperitoneal) in CD2F1 (CDF1) mice
Details: T/C endpoint: median survival time, higher T/C = longer survival
[1] = dose: 120.0 mg/kg/injection, schedule: Q01DX005 (ip), vehicle: Klucel (hydroxypropylcellulose) (HPC)
[2] = dose: 240.0 mg/kg/injection, schedule: Q01DX005 (ip), vehicle: Klucel (hydroxypropylcellulose) (HPC)
[3] = dose: 100.0 mg/kg/injection, schedule: Q01DX005 (ip), vehicle: Klucel (hydroxypropylcellulose) (HPC)
[4] = dose: 200.0 mg/kg/injection, schedule: Q01DX005 (ip), vehicle: Klucel (hydroxypropylcellulose) (HPC)
[5] = dose: 200.0 mg/kg/injection, schedule: Q01DX009 (ip), vehicle: saline
[6] = dose: 100.0 mg/kg/injection, schedule: Q01DX009 (ip), vehicle: Klucel (hydroxypropylcellulose) (HPC)
[7] = dose: 200.0 mg/kg/injection, schedule: Q01DX009 (ip), vehicle: Klucel (hydroxypropylcellulose) (HPC)
[8] = dose: 400.0 mg/kg/injection, schedule: Q01DX009 (ip), vehicle: saline with Tween-80
[9] = dose: 50.0 mg/kg/injection, schedule: Q01DX009 (ip), vehicle: saline
[10] = dose: 400.0 mg/kg/injection, schedule: Q04DX003 (ip), vehicle: saline with Tween-80
[11] = dose: 200.0 mg/kg/injection, schedule: Q01DX009 (ip), vehicle: saline with Tween-80
[12] = dose: 200.0 mg/kg/injection, schedule: Q04DX003 (ip), vehicle: saline with Tween-80
[13] = dose: 50.0 mg/kg/injection, schedule: Q01DX009 (ip), vehicle: saline with Tween-80
[14] = dose: 100.0 mg/kg/injection, schedule: Q01DX009 (ip), vehicle: saline with Tween-80
[15] = dose: 200.0 mg/kg/injection, schedule: Q01DX005 (ip), vehicle: saline
[16] = dose: 100.0 mg/kg/injection, schedule: Q04DX003 (ip), vehicle: saline with Tween-80

CC(=O)OC(C[Se]c1ccccc1)OC(C)=O
survivor count (dose: 150.0 mg/kg/injection, schedule: Q01DX001 (ip), vehicle: saline with Tween-80): 1 of 6 and 2 of 6
survivor count (dose: 300.0 mg/kg/injection, schedule: Q01DX001 (ip), vehicle: saline with Tween-80): 2 of 6

CC(C)N(c1ccnc(F)n1)C(C)C
survivor count [1]: 3 of 6
survivor count [2]: 0 of 6

COC(=O)Cc1nc2c(=O)[nH]c(N)nc2[nH]c1=O
survivor count [3]: 4 of 6
survivor count [4]: 3 of 6

N#CC(C#N)=C(C#N)Nc1ccc(F)cc1
survivor count [1]: 0 of 6

COCC[P+](c1ccccc1)(c1ccccc1)c1ccccc1
survivor count (dose: 0.78 mg/kg/injection, schedule: Q01DX009 (ip), vehicle: water): 6 of 6
T/C (dose: 12.5 mg/kg/injection, schedule: Q01DX009 (ip), vehicle: water): 131 % of control

O=C1c2ccccc2C(=O)C1C(=Nc1ccccc1Cl)c1ccccc1
survivor count (dose: 50.0 mg/kg/injection, schedule: Q01DX005 (ip), vehicle: Klucel (hydroxypropylcellulose) (HPC)): 5 of 5
survivor count [4]: 5 of 5

NCc1ccccc1
survivor count [5]: 1 of 6 and 3 of 6
survivor count (dose: 400.0 mg/kg/injection, schedule: Q01DX009 (ip), vehicle: saline): 0 of 6
survivor count (dose: 600.0 mg/kg/injection, schedule: Q01DX009 (ip), vehicle: saline): 0 of 6

O=C(Nc1ccc(C(=O)O)cc1)Nc1nccs1
T/C (dose: 25.0 mg/kg/injection, schedule: Q01DX009 (ip), vehicle: distilled water + Tween-80): 125 % of control
T/C (dose: 50.0 mg/kg/injection, schedule: Q01DX009 (ip), vehicle: distilled water + Tween-80): 143 % of control
T/C (dose: 100.0 mg/kg/injection, schedule: Q01DX009 (ip), vehicle: distilled water + Tween-80): 131 % of control
T/C (dose: 200.0 mg/kg/injection, schedule: Q01DX009 (ip), vehicle: distilled water + Tween-80): 126 % of control
survivor count (dose: 400.0 mg/kg/injection, schedule: Q01DX009 (ip), vehicle: distilled water + Tween-80): 2 of 6 and 3 of 6

CSc1nc(Cl)cc(Sc2nc(N)nc3nc[nH]c23)n1
T/C [6]: 127 and 129 % of control
survivor count [7]: 6 of 6

CCc1cnc2ccccc2c1/C=C/c1ccc(N(C)C)cc1
survivor count [8]: 5 of 6

Cc1cc2nc3ccc(N)cc3oc-2cc1=[N+](C)C
T/C (dose: 12.5 mg/kg/injection, schedule: Q01DX009 (ip), vehicle: saline): 128 and 134 % of control
T/C (dose: 25.0 mg/kg/injection, schedule: Q01DX009 (ip), vehicle: saline): 128 and 139 % of control
T/C [9]: 137 % of control

NSc1ccc([N+](=O)[O-])cc1
survivor count (dose: 100.0 mg/kg/injection, schedule: Q01DX001 (ip), vehicle: other): 2 of 6

S=c1nc[nH]c2c1ncn2C1CCCO1 (centres undefined)
survivor count [10]: 3 of 6

CS(=O)(=O)OCCN(CCOS(C)(=O)=O)c1ccc(C=Nc2ccc3oc(=O)ccc3c2)cc1
survivor count [11]: 6 of 6
T/C [12]: 136 % of control

CCOc1cc(C=Nc2cc(Cl)c(O)c(Cl)c2)ccc1N(CCCl)CCCl
T/C (dose: 6.25 mg/kg/injection, schedule: Q04DX003 (ip), vehicle: saline with Tween-80): 136 % of control
survivor count [13]: 6 of 6

Oc1c(-c2ccccc2)cc(-[n+]2c(-c3ccccc3)cc(-c3ccccc3)cc2-c2ccccc2)cc1-c1ccccc1
survivor count (dose: 6.0 mg/kg/injection, schedule: Q01DX009 (ip), vehicle: saline with Tween-80): 3 of 6
survivor count [13]: 0 of 6
survivor count [14]: 0 of 6
survivor count [11]: 0 of 6

CC1(C)CN=C(NN=C(/C=C/c2ccc(C(F)(F)F)cc2)/C=C/c2ccc(C(F)(F)F)cc2)NC1
survivor count [2]: 5 of 6

CC(=O)C(Cl)c1ccccc1Cl (centres undefined)
T/C [6]: 125 % of control
survivor count [7]: 1 of 6 and 4 of 6

[CH3][Sn]1([CH3])[O]C(=O)C(=O)[O]1
survivor count (dose: 100.0 mg/kg/injection, schedule: Q01DX001 (ip), vehicle: Klucel (hydroxypropylcellulose) (HPC)): 0 of 6
survivor count (dose: 200.0 mg/kg/injection, schedule: Q01DX001 (ip), vehicle: Klucel (hydroxypropylcellulose) (HPC)): 0 of 6
survivor count (dose: 400.0 mg/kg/injection, schedule: Q01DX001 (ip), vehicle: Klucel (hydroxypropylcellulose) (HPC)): 0 of 6

CSC1=NC(=S)C(C)(C)NN1
survivor count (dose: 200.0 mg/kg/injection, schedule: Q04DX002 (ip), vehicle: Klucel (hydroxypropylcellulose) (HPC)): 4 of 6
survivor count (dose: 400.0 mg/kg/injection, schedule: Q04DX002 (ip), vehicle: Klucel (hydroxypropylcellulose) (HPC)): 0 of 6

Cc1ccc(N2C(=O)CCSC2=S)cc1Cl
T/C (dose: 50.0 mg/kg/injection, schedule: Q01DX009 (ip), vehicle: Klucel (hydroxypropylcellulose) (HPC)): 131 % of control
T/C [7]: 133 % of control
survivor count (dose: 400.0 mg/kg/injection, schedule: Q01DX009 (ip), vehicle: Klucel (hydroxypropylcellulose) (HPC)): 0 of 6

CCCCOP(O)(=S)OCCCC.[Ho]
T/C (dose: 100.0 mg/kg/injection, schedule: Q01DX001 (ip), vehicle: saline with Tween-80): 139 % of control

CN(C)/C(N)=N\c1ncccn1
survivor count [9]: 6 of 6

CCCOC(=O)/C=C(\Br)C(=O)OCCC
T/C (dose: 25.0 mg/kg/injection, schedule: Q01DX009 (ip), vehicle: saline with Tween-80): 126 % of control
survivor count [13]: 2 of 6 and 6 of 6
survivor count [14]: 2 of 6
survivor count [11]: 1 of 6

COc1ccc(C=C(C(=O)CCN(C)C)C(=O)CCN(C)C)cc1
survivor count [15]: 2 of 5

CN(C)C(=O)SC1=C(c2c(Cl)cccc2Cl)C(=O)c2ccccc21
survivor count (dose: 400.0 mg/kg/injection, schedule: Q01DX005 (ip), vehicle: Klucel (hydroxypropylcellulose) (HPC)): 1 of 6

Nc1nc(=S)c2[nH]c(=S)[nH]c2[nH]1
survivor count [14]: 6 of 6
T/C [16]: 136 % of control
T/C [11]: 145 % of control
survivor count [11]: 6 of 6
T/C [12]: 127 % of control
survivor count [8]: 5 of 6
T/C [10]: 140 [5 of 6 alive] and 145 % of control

CNC(=O)Nc1[nH]c(=O)ncc1Cl
survivor count (dose: 240.0 mg/kg/injection, schedule: Q01DX005 (ip), vehicle: saline with Tween-80): 4 of 6

O=C(CC(=O)N1CCN(c2ccccc2)CC1)N1CCN(c2ccccc2)CC1
survivor count [9]: 6 of 6
survivor count [5]: 2 of 6

Clc1ccc2c(NCCC3CCCN4CCCCC34)ccnc2c1 (centres undefined)
survivor count [3]: 2 of 6
survivor count [4]: 0 of 6

O=c1nc2n(CC(O)C(O)C(O)C(O)CO)c3cc(Cl)c(Cl)cc3nc-2c(=O)[nH]1 (centres undefined)
survivor count (dose: 200.0 mg/kg/injection, schedule: Q01DX005 (ip), vehicle: saline with Tween-80): 2 of 6

c1ccc2c(c1)Sc1ccccc1N2CCCNC1=NCCO1
survivor count [16]: 6 of 6

O=C1CCC([N+](=O)[O-])C(c2ccccc2)N1 (centres undefined)
survivor count [14]: 3 of 6
survivor count [11]: 4 of 6

CCN(CC)CCCCCCNc1cc(OC)c(Cl)c2cccnc12
survivor count (dose: 100.0 mg/kg/injection, schedule: Q01DX005 (ip), vehicle: saline): 0 of 5
survivor count [15]: 0 of 5

NC(=O)c1[nH]cnc1/N=N/N(CCCl)Cc1ccccc1
T/C (dose: 66.0 mg/kg/injection, schedule: Q01DX009 (ip), vehicle: Klucel (hydroxypropylcellulose) (HPC)): 136 % of control
T/C (dose: 100.0 mg/kg/injection, schedule: Q04DX003 (ip), vehicle: Klucel (hydroxypropylcellulose) (HPC)): 143 % of control
